{"source": "patent US20260038304A1", "about": "“METHOD AND SYSTEM FOR DETERMINING EFFICACY OF TREATMENT BY A PRE[…]” (priority 2023, published 2026)", "key": {"[1]": {"test_system": "larval zebrafish", "experiment": "Dark avoidance behavior in an environment with light and dark areas", "assay_type": "in vivo", "settings": "5-minute spontaneous exploration; 30 control and 30 psilocybin-treated fish; p=0.0082"}, "[2]": {"test_system": "larval zebrafish", "experiment": "Wide-field behavioral tracking of spontaneous exploration and visually driven swimming after drug bath pretreatment", "assay_type": "in vivo", "text": "Reference is now made to FIG. 1A, which is a schematic diagram depicting an experimental setup, which may be used for evaluating behavior of an animal, according to some embodiments. […] This setup tracks the precise body kinematics of a single fish in an environment that is large (e.g., 90 mm) compared to the length of larval zebrafish (˜4 mm) at a high-resolution (e.g., higher than 1100×1100 pixels) and high-speed (e.g., 290 Hz). Data analysis pipelines further processed the images to identify the fish loci and body postures by using a deep neural network.\nDifferent swim episodes can be visually separated in the depicted trajectories. Fish behavior was recorded at infrared wavelengths for 15 minutes while visual gratings stopped for 10 seconds (spontaneous swimming) and moved for 10 seconds (visually driven behavior) in cycles.\nThe inventors have used a custom-built zebrafish tracking system consisting of a high-speed camera, a macro lens and associated locking sleeve, an infrared filter for the lens, 880 nm LED illumination, a 100 mm×120 mm cold mirror, and a compact projector.\nThe inventors have tested the behavior of AB fish at the age of 5 Days Post Fertilization (DPF) on a chemical watch glass (125 mm) whose bottom surface was manually coated with a white spray. The inventors have imaged an area that spanned 90 mm (corresponding to 1100-1200 pixels) for each dimension with a resolution of […] per pixel at 290 Hz. […] Behavioral data presented in this study were acquired using at least three batches, as depicted in FIGS. 1, 2, 3, 4, 1SD, 2H, 2I, 2J, 3L, 4S, for at least two batches (FIG. 3J).\nUntil 5 DPF, both control and drug-exposed embryos were reared in 90-mm Petri dishes and maintained in a light-cycled incubator at 28.0° C. Media was changed every other day and no food was given before behavioral experiments. All behavioral experiments in this study were performed in E3 medium after washing out pretreated drugs.\nPsilocybin solution (Sigma, P-097) was purchased as a stock solution concentration of 1.0 mg/mL in acetonitrile:water (1:1), ampule of 1 mL (3.52 mM). Stock solutions were stored at −80° C. for long-term storage, and in-use aliquots were stored at −20° C. Aliquots were thawed and vortexed immediately before use. Psilocybin was administered by incubating the fish in the psilocybin solution in 6-well plates. Desired concentrations of psilocybin were achieved by adding the stock solution to the E3 medium in which the fish swim. Concentrations ranging from 1 μM to 50 μM were tested in order to optimize the dosage.\nThe inventors determined that a dose of 2.5 μM for 4 h had the largest effect on spontaneous swimming compared to controls (refer to FIGS. 3E and 3J). Following the 4-hour exposure, fish were double washed in E3 medium, and remained in E3 medium until their behavior was examined. Behaviors were recorded for 15 minutes per fish.\nFluoxetine hydrochloride (Sigma, F918) was prepared as a 1 mg/ml (2.9 mM) stock solution in a conditioned E3 medium for zebrafish embryos. Fluvoxamine (Sigma, F2802) was prepared as a 10 mg/ml (23 mM) stock solution in a conditioned E3 medium. Desired Fluoxetine and Fluvoxamine concentrations were achieved by diluting the stock solution with conditioned E3 medium and storing the aliquots at −20° C. At 5 DPF, the fish were incubated as follows: Fluoxetine and Fluvoxamine were administered by incubating the fish in the solutions in 6-well plates. Desired concentrations of the two types of SSRIs were achieved by adding the stock solutions to the E3 medium in which the fish swim. Concentrations ranging from 1 μM to 10 μM for Fluoxetine and 2.5 μM to 25 μM for Fluvoxamine were tested in order to optimize the dosage. After 24 hours of incubation the fish, after being triple washed, were transferred to a new Petri dish, similar to the one they dwelled in before, containing only E3 medium. Behaviors were recorded at 6 DPF for 15 minutes per fish. […]"}, "[3]": {"test_system": "larval zebrafish", "experiment": "Ketanserin bath application with or without psilocybin, independent component analysis of swim patterns", "assay_type": "in vivo", "settings": "psilocybin 2.5 μM added 1 hour after start of Ketanserin 11.25 μM, 4 hours", "experimental": "The right panel of FIG. 4M depicts latent feature (e.g., independent component) analysis of swim patterns after the sham treatment, Ketanserin exposure and psilocybin pretreatment before Ketanserin exposure;\nKetanserin has acute anxiogenic effects in adult zebrafish and rodents.\nFor Ketanserin experiments (FIG. 4M), the inventors performed a bath application of Ketanserin (11.25 μM) for 5 hours before behavioral tests. Psilocybin (2.5 μM) was added to the solution 1 hour after the start of Ketanserin treatment for a total duration of 4 hours before behavioral tests. Ketanserin (Sigma, S006) was prepared as a 0.5 mg/mL stock solution in E3 medium. Stock solutions were stored at −80° C. for long-term storage, and in-use aliquots were stored at −20° C. The desired concentration of Ketanserin was achieved by adding the stock solution to the E3 medium in which the fish swim.\nFor Independent Component Analysis (ICA) (FIGS. 2D, 3G, 4D, 4K and 4L), The inventors identified ICA weights and normalization factors in the dataset of 14,694 swimming episodes from N=22 fish for the small arena and N=20 fish for the large arena (FIG. 1) by using FastICA function in scikit-learn package (https://scikit-learn.org). The inventors subsequently applied the same ICA weights and normalization factors to other datasets. […]"}, "[4]": {"test_system": "larval zebrafish", "experiment": "Hypertonic (NaCl) stress exposure after psilocybin pretreatment, swim pattern analysis", "assay_type": "in vivo", "settings": "11 fish, FIG. 4L"}, "[5]": {"test_system": "larval zebrafish", "experiment": "Acute cold stress exposure (28° C. to 18° C., 5 minutes) after drug pretreatment, swim pattern analysis", "assay_type": "in vivo", "text": "As known in the art, acute administration of psilocybin has anxiolytic effects in humans. The inventors have thus tested whether acute stress exposure causes changes in fish's swim patterns in our setup and whether psilocybin can prevent such stress-induced behavioral changes. Various environmental stressors have been tested in larval zebrafish that trigger cortisol increase, including hypertonic water, acids, mechanical disturbance, social isolation, and heating or cooling shock.\nAs shown in FIG. 4I-E, the inventors also tested the effect of hypertonic stress for comparison.\nThe behavioral effects of other antidepressants was investigated and compared with those of psilocybin. Initially, the effect of ketamine was tested. Ketamine is a fast-acting antidepressant that can also suppress stress-induced behavioral changes in zebrafish. Sub-anesthetic concentration (30 μM) were used and bath application were performed for 30 minutes before the cold shock (FIG. 5A).\nThe effect of fluoxetine was also tested in the cold shock paradigm, using a concentration of 4.6 μM from previous zebrafish studies, and the effect of bath application was examined for 24 hours before the cold shock (FIG. 5D). […] However, fluoxetine had mixed effects on body kinematics after stress exposure. […] These mixed effects may be due to the induction of distorted swim patterns by fluoxetine that were observed (FIG. 5F, FIG. S3C) but also may reflect its lack of acute anxiolytic effects in humans.\nThe inventors classified the effects of psilocybin, ketamine and fluoxetine based on two behavioral measures: changes in swimming distances (FIG. 5G) and the ICA analysis of body kinematics (FIG. 5H). In the first type of classification (FIG. 5G), the action of tested drugs was classified based solely on swimming distances. […] Anxiolytic effects were calculated based on how much the drugs could revert the increase of swimming distance induced by stress exposure. In the second type of classification (FIG. 5H), two dimensions identified by the ICA analysis of body kinematics were used. […] Anxiolytic effects were calculated based on how much the drugs could revert the changes along the IC2 axis induced by stress exposure.\nJust as osmotic changes to the water cause stress to the fish, changes in water temperature are also known to induce stress. Zebrafish's optimal environment is approximately 28° C., and so it has been shown that a short exposure of 5 minutes to 18° C. leads to increased cortisol levels and anxiety-like behaviors in larval zebrafish. Thus, the inventors utilized this established stress paradigm and exposed the fish to 18° C. E3 medium for 5 minutes. The inventors subsequently returned the fish to 28° C. E3 for a 5-minute recovery before testing (FIG. 4A). 18° C. E3 was achieved by mixing 4° C. E3 with 28° C. E3. Over the course of the 5-minute cold stimulus, the water temperature on average ranged from 18° C. to 20° C. The recovery in 28° C. E3 was done in an incubator, thus the temperature remained stable. Note that these procedures involve multiple occasions of transferring fish and replacing liquid around the fish, which themselves cause stress response due to mechanical disturbances. The effect of such procedural stress was present as the shifts of behavioral states along the IC2 axis in the data presented in FIGS. 4 and S4 compared to other datasets. […]"}, "[6]": {"test_system": "dorsal raphe nucleus (DRN)", "experiment": "Calcium imaging of neural population dynamics in head-fixed virtual reality setup", "assay_type": "in vivo, zebrafish"}}, "note": "For at least one compound, name, drawing or mass did not settle the structure.", "data": [{"smiles": "CN(C)CCc1c[nH]c2cccc(OP(=O)(O)O)c12", "note": "[psilocybin, Psilocybin]", "values": [{"measurement": "exploration of the darker side (dark avoidance)", "setting": "[1]", "result": "explore the darker side significantly more often"}, {"measurement": "stimulatory effects on spontaneous exploration at higher concentrations and longer durations", "setting": "[2]; above 2.5 μM, longer than 4 h", "result": "reduction of such effects"}, {"measurement": "rapid scooting (ICA1) during spontaneous exploration", "setting": "[2]; psilocybin 2.5 μM vs control, kernel density 2-sample test, p=3.3*10^−65", "result": "significantly enhance"}, {"measurement": "turning/escape behaviors (ICA2)", "setting": "[2]; psilocybin 2.5 μM vs control, n.s.", "result": "does not cause a significant increase"}, {"measurement": "tail frequency during spontaneous swimming", "setting": "[2]; psilocybin 2.5 μM vs control, p=0.0051", "result": "significantly enhanced"}, {"measurement": "tail angles during spontaneous swimming", "setting": "[2]; psilocybin 2.5 μM vs control, p=0.044", "result": "slightly enhanced"}, {"measurement": "bout intervals during spontaneous swimming", "setting": "[2]; psilocybin 2.5 μM vs control, p=8.6*10-4", "result": "shortened"}, {"measurement": "swimming distances during visually driven swimming", "setting": "[2]; psilocybin 2.5 μM, 4 h bath pretreatment, vs control", "result": "but not visually driven swimming"}, {"measurement": "swimming distances during spontaneous exploration", "setting": "[2]; psilocybin 2.5 μM, 4 h bath pretreatment, vs control, N=18 fish per condition, p=0.011", "result": "significantly enhances"}, {"measurement": "stimulatory/suppressive effects on basal behavior", "setting": "[2]; unstressed fish vs control, swimming distance and IC1 axis classifications consistent (FIG. 5G, 5H)", "result": "stimulatory"}, {"measurement": "effect on Ketanserin-induced changes of behavioral states", "setting": "[3]", "result": "prevented such changes"}, {"measurement": "preventative effects for behavioral changes induced by hypertonic stress", "setting": "[4]", "result": "did not observe similar preventative effects"}, {"measurement": "reversal of the stress-induced changes in body kinematics (FIG. 5H)", "setting": "[5]; IC2 axis, classification of psilocybin, ketamine and fluoxetine", "result": "only occurred with ketamine and psilocybin"}, {"measurement": "stress-induced shift of behavioral states along the ICA1 axis (rapid scooting)", "setting": "[5]; psilocybin 2.5 μM pretreatment", "result": "did not prevent"}, {"measurement": "stress-induced changes in swim patterns (zig-zag vs straight) during visually driven swimming", "setting": "[5]; psilocybin 2.5 μM pretreatment, ketamine 30 μM 30 minutes", "result": "prevented stress-induced changes in swim patterns"}, {"measurement": "stress-induced shift along the ICA2 (IC2) axis, turning/escape behavior", "setting": "[5]; psilocybin 2.5 μM, ketamine 30 μM, fluoxetine 4.6 μM", "result": "significantly diminished"}, {"measurement": "stress-induced increase of tail frequency, tail angle and number of tail motions", "setting": "[5]; psilocybin pretreatment, spontaneous exploration", "result": "such an effect was not observed"}, {"measurement": "shift of the neural state along the vertical axis (NMF #1)", "setting": "[6]; OMR period, psilocybin treatment vs control", "result": "enhanced"}, {"measurement": "fraction of neurons with higher activity during the OMR period (Class 2 neurons, predominantly GABAergic)", "setting": "[6]; psilocybin-treated (N=7) vs control (N=6)", "result": "became slightly higher"}, {"measurement": "fraction of neurons with higher activity during the spontaneous period (Class 1 neurons, predominantly serotonergic)", "setting": "[6]; psilocybin-treated (N=7) vs control (N=6), p=0.046", "result": "became significantly lower"}, {"measurement": "shift of the neural state along the horizontal axis (NMF #2)", "setting": "[6]; spontaneous period, psilocybin treatment vs control", "result": "diminished"}]}]}
